PubChem BioAssay AID1671195, Yale University | 2021
The whole screen tested about 22,000 reagents; shown is a part drawn at random. About 1,510 of all reagents (6.9%) were called active. 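Active includes knockdowns raising or lowering LDL uptake; positive z-scores mean more uptake, negative mean less.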 Entries without a mark were called inactive. Reagents against one gene are numbered here.

Purpose: 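Knockdowns that increase or decrease uptake of fluorescent LDL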 (primary screen)
Cells: human Huh7 hepatoma cells
Reagent: siRNA pool against human genes, 18 nM
Time to read-out: about 2 to 2.5 days of knockdown, then 8 h LDL uptake
Treatment: DiI-labelled LDL at 30 µg/ml for 8 h, in lipoprotein-deficient serum medium
Detection: 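Fluorescent LDL signal imaged in cells, scaled to the plate median, robust z-score for each replicate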
Direction: robust z-score: higher = more LDL uptake after knockdown
Call rule: 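Active when two or more replicates show a robust z-score above 2 or below -2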

What did the screen give for ATF5?
robust z-score, replicate 1: 2.75 (active); robust z-score, replicate 2: 2.11; robust z-score, replicate 3: 2.4

Which result is listed for PRR18?
robust z-score, replicate 1: -0.215; robust z-score, replicate 2: 0.213; robust z-score, replicate 3: 0.422

How did the screen score CD5L?
robust z-score, replicate 1: -1.22; robust z-score, replicate 2: -1.15; robust z-score, replicate 3: -1.58

With LOC401178 (retired record), how do the results read?
robust z-score, replicate 1: 1.54; robust z-score, replicate 2: 1.24; robust z-score, replicate 3: 0.997

For LUC7L, what was measured?
robust z-score, replicate 1: -2.04; robust z-score, replicate 2: 0.19; robust z-score, replicate 3: -0.503

How did the screen score LOC441652 (retired record)?
robust z-score, replicate 1: -1.33; robust z-score, replicate 2: -1.29; robust z-score, replicate 3: -1.32

With FABP7, what was measured?
robust z-score, replicate 1: -0.538; robust z-score, replicate 2: -0.868; robust z-score, replicate 3: -0.639

With CD274, what does the deposit list?
robust z-score, replicate 1: 2.11; robust z-score, replicate 2: 1.66; robust z-score, replicate 3: 0.842

What is on record for GCNT4?
robust z-score, replicate 1: 0.988; robust z-score, replicate 2: 1.36; robust z-score, replicate 3: 1.2

For FBXL16, how do the results read?
robust z-score, replicate 1: 1.73; robust z-score, replicate 2: 1.19; robust z-score, replicate 3: 2.24

With FGB, what was measured?
robust z-score, replicate 1: 0.0943; robust z-score, replicate 2: -0.528; robust z-score, replicate 3: 1.01

For THSD1, what was measured?
robust z-score, replicate 1: -0.655; robust z-score, replicate 2: -1.25; robust z-score, replicate 3: -1.7

With PADI3, how do the results read?
robust z-score, replicate 1: -0.96; robust z-score, replicate 2: -0.352; robust z-score, replicate 3: -0.768

With ZNF839P4 #1, how do the results read?
robust z-score, replicate 1: 0.748; robust z-score, replicate 2: -0.239; robust z-score, replicate 3: 0.304

How did the screen score ZNF839P4 #2?
robust z-score, replicate 1: 0.109; robust z-score, replicate 2: -0.031; robust z-score, replicate 3: 0.21

What is on record for MISP3?
robust z-score, replicate 1: -0.824; robust z-score, replicate 2: 0.0886; robust z-score, replicate 3: -0.459

With LIN7B, how do the results read?
robust z-score, replicate 1: -1.94; robust z-score, replicate 2: -1.23; robust z-score, replicate 3: -0.862

For NSD2, what does the deposit list?
robust z-score, replicate 1: -1.12; robust z-score, replicate 2: -0.559; robust z-score, replicate 3: -1.16

With UBE2D3, how do the results read?
robust z-score, replicate 1: 0.613; robust z-score, replicate 2: 1.3; robust z-score, replicate 3: 0.434

For STRIP2, what was measured?
robust z-score, replicate 1: -0.952; robust z-score, replicate 2: -1.07; robust z-score, replicate 3: -1.08

With MED24, what does the deposit list?
robust z-score, replicate 1: -0.691; robust z-score, replicate 2: -0.757; robust z-score, replicate 3: -0.987

Which result is listed for BMP7?
robust z-score, replicate 1: -0.856; robust z-score, replicate 2: -0.569; robust z-score, replicate 3: -1.29

How did the screen score RHCG?
robust z-score, replicate 1: -0.0313; robust z-score, replicate 2: 0.273; robust z-score, replicate 3: -0.337

How did the screen score LRIG2?
robust z-score, replicate 1: 0.0453; robust z-score, replicate 2: 0.454; robust z-score, replicate 3: -1.04

Hits, of those listed so far:
ATF5 | robust z-score, replicate 1: 2.75 (active); robust z-score, replicate 2: 2.11; robust z-score, replicate 3: 2.4
